Some of the results follow.
Each sequence was assayed against T1, OsSMF1 (Oryza sativa, UniProt Q6ZLB0 1-436) (assay: protein-binding microarray (RPBM); PBS, 2% BSA, 51.3 ng/ul salmon testes DNA, 50 uM zinc acetate, 200 nM TF, 25 C, 1 h; high values mean tight binding). Conditions: protein: recombinant; tags: N-terminal polyhistidine and DsRed monomer fusion (pET32a); chain copies: 2; label: CyDye5-dUTP incorporated in the synthesized complementary strand; 3' TTTTT single-stranded linker to array surface; dsDNA, one strand shown.
T1 sequence: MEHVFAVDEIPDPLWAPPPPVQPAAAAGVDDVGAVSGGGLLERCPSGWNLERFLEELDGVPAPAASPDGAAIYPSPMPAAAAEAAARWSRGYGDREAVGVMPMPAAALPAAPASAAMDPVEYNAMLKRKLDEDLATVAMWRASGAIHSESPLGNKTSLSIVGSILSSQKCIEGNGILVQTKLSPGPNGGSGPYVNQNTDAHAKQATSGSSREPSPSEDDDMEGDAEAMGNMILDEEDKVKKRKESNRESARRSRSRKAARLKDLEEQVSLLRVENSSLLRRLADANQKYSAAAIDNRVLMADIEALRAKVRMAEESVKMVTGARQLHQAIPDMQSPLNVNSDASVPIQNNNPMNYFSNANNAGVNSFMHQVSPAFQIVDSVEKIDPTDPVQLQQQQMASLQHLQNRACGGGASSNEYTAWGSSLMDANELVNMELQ
Summary of the method: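 Ni–NTA purification followed expression in E. coli BL21-CodonPlus of transcription factors fused N-terminally to a polyhistidine tag and DsRed. At 200 nM in PBS with 2% BSA, salmon testes DNA and 50 µM zinc acetate, the protein was incubated for 1 h at 25 °C with a custom Agilent array that had been primer-extended with Cy5-dUTP and blocked with 2% BSA. After washing, the array was read on an Axon 4000B scanner. The binding signal is per-feature fluorescence intensity in arbitrary units.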
With “ATCGTATCATTCTAGACGGAATGGAGATGGTACTGTTGGACGGAGTCACCTAGTGCAG” the binding signal was 35600 fluorescence intensity (a.u.). With “GGTCATACGTGTCATATTGCCCCTCAGTTATGCATTCATACGGAGTCACCTAGTGCAG” the binding signal was 10700 fluorescence intensity (a.u.). With “CTTTTAAGTATAGTAGTAGTAGATTGAGGTAGCTGGTTATCGGAGTCACCTAGTGCAG” the binding signal was 3570 fluorescence intensity (a.u.). With “ACATCAAACATGCACGCGGATCATCCACGTGCCAAGACGGCGGAGTCACCTAGTGCAG” the binding signal was 5580 fluorescence intensity (a.u.). For “CCACCCCGACCTGACCTAACCCACCACCTCCTCGGCGCCGCGGAGTCACCTAGTGCAG”, the binding signal was 7900 fluorescence intensity (a.u.). For “GATCAAGCGGCGGTACTTCCGACAGGACCACGGCGACAAGCGGAGTCACCTAGTGCAG”, the binding signal was 3330 fluorescence intensity (a.u.). In the case of “GTGTTCACCTGTTCGGGCTCGTGCTTACCAGCTAGGGTAACGGAGTCACCTAGTGCAG”, the binding signal is reported as 3320 fluorescence intensity (a.u.). “GACTAAATGAATAAAATGACAGGAGGTGATGGGTAAAATTCGGAGTCACCTAGTGCAG” was tested, and the binding signal was 22000 fluorescence intensity (a.u.). For “CTTCAGCGTCCTACGTGTAAGCTAGAGAAGCCACGTGGCTCGGAGTCACCTAGTGCAG”, the binding signal was 10800 fluorescence intensity (a.u.). In the case of “TTGATCAATATATAGCTGTCTGGTTTTATGCTCTCCAGCTCGGAGTCACCTAGTGCAG”, the binding signal is reported as 4790 fluorescence intensity (a.u.). With “GGAGGCCGTCGTCGCCATGGAGGTCGTCGTGGCGACAGCGCGGAGTCACCTAGTGCAG” the binding signal was 3870 fluorescence intensity (a.u.). “CTTCTCGGAGGCACACCAGGTCACCAGCACGTGTGCAAGCCGGAGTCACCTAGTGCAG” was tested, and the binding signal was 4050 fluorescence intensity (a.u.). With “TGATTTCATGGACCTAATGGGCCGTGTCTTCGTGGGCCGACGGAGTCACCTAGTGCAG” the binding signal was 3510 fluorescence intensity (a.u.). In the case of “TGTACGACACGCGCGTCGATCGGATCACTCGCACTAAATTCGGAGTCACCTAGTGCAG”, the binding signal is reported as 3270 fluorescence intensity (a.u.). With “AGATAAGACATGCCTCGTCGGATCGATATAATCGCCTTAGCGGAGTCACCTAGTGCAG” the binding signal was 3650 fluorescence intensity (a.u.). With “GGAGATAAGGGTGTCCATGGTGTCACCGAGGGCAATGAGGCGGAGTCACCTAGTGCAG” the binding signal was 4700 fluorescence intensity (a.u.). “TCCGTGCTACAGCTAGCTACAGATATGTAGTCCGTCATTCCGGAGTCACCTAGTGCAG” was tested, and the binding signal was 45200 fluorescence intensity (a.u.). With “GAGGTACATGGTGGCATGCTCGAGGGCGTCCGGCCGGATACGGAGTCACCTAGTGCAG” the binding signal was 3390 fluorescence intensity (a.u.). For “AAATGAGTGGGCGACAACGTTGACACGGCACCAAACGCCTCGGAGTCACCTAGTGCAG”, the binding signal was 5750 fluorescence intensity (a.u.). “ATTGCAAAATTCGTTTCCAATATCGGCTATAATTTTGTAGCGGAGTCACCTAGTGCAG” was tested, and the binding signal was 25600 fluorescence intensity (a.u.). With “TGCACTATTCTATATTATATTATGCAAGTTTATTTTACGACGGAGTCACCTAGTGCAG” the binding signal was 3260 fluorescence intensity (a.u.). In the case of “TTCTTGAATTGCTGGAGAGGGGTGGGGAAGAAAGATCGGGCGGAGTCACCTAGTGCAG”, the binding signal is reported as 3500 fluorescence intensity (a.u.). For “TTAATCAGACTAGTAGAATCGCCGGGTACCCACATGCCTGCGGAGTCACCTAGTGCAG”, the binding signal was 20100 fluorescence intensity (a.u.).

— article PMC7819943, “Rice protein-binding microarrays: a tool to detect cis-acting elements near promoter regions in rice”
